These are yes or no findings as the source states them, for the method shown. In cells and extracts the contact can be indirect. Binding calls can cover weak binding; strength is not graded here. Sequences can lack the tags named with a protein.

The record followed here is PMC12148026.

For this assay, the target named is SIM-deficient human Ulk4, HA-tagged (Ulk4-ΔSIM–HA) (human) (UniProt Q96C45). Nature of the assay: co-IP; HEK293T cells transfected with Fg-tagged and HA-tagged Ulk4 constructs, immunoprecipitation and western blot with the indicated antibodies (which tag was precipitated is not given). (In western blotting, separated proteins are transferred to a membrane and probed.)

With “Flag-tagged Ulk4-EE (Ulk4-EE–Fg), phospho-mimetic human Ulk4 T1021E/T1023E (from UniProt Q96C45 1-1275)”, the binding result was “binds”.

B1: C-terminal fragment of Ulk4-EE from amino acids 1004–1275, Flag-tagged (C272-EE–Fg) (domain or fragment, UniProt Q96C45 1004-1275)
chain: VPAYALKLLVAMTEHNPEFERLVEESKLIPLIFEVTLEHQESILGNTMQSVIALLSNLVACKDSNMELLYEQGLVSHICNLLTETATLCLDVDNKNNNEMAAPLLFSLLDILHSMLTYTSGIVRLALQAQKSGSGEDPQAAEDLLLLNRPLTDLISLLIPLLPNEDPEIFDVSSKCLSILVQLYGGENPDSLSPENVEIFAHLLTSKEDPKEQKLLLRILRRMITSNEKHLESLKNAGSLLRALERLAPGSGSFADSAVAPLALEILQAVGH
As to B1, the binding result is listed as “no binding”.
